These are yes or no findings as the source states them, for the method shown. Binding seen in cells or lysates may run through a third protein. A yes stands for co-enrichment or nearness to the bait. Other partners may have been found.
Target: NUP-1::GFP (Trypanosoma brucei brucei Lister 427) (UniProt Q586V1)
Assay: affinity purification with mass spectrometry; NUP-1::GFP captured from cryomilled PCF trypanosomes on anti-GFP magnetic beads; 20 mM HEPES, pH 7.4, 250 mM NaCl, 0.5% Triton, 0.5% deoxy-BigCHAP; 1D SDS-PAGE, bands identified by MALDI-TOF MS and ESI-MS2

Chains of the proteins cited; added tags and fusions are not shown. Lines headed by an entry give the natural chain unless they say otherwise; changes in a name come on top.
UniProt Q38ET5: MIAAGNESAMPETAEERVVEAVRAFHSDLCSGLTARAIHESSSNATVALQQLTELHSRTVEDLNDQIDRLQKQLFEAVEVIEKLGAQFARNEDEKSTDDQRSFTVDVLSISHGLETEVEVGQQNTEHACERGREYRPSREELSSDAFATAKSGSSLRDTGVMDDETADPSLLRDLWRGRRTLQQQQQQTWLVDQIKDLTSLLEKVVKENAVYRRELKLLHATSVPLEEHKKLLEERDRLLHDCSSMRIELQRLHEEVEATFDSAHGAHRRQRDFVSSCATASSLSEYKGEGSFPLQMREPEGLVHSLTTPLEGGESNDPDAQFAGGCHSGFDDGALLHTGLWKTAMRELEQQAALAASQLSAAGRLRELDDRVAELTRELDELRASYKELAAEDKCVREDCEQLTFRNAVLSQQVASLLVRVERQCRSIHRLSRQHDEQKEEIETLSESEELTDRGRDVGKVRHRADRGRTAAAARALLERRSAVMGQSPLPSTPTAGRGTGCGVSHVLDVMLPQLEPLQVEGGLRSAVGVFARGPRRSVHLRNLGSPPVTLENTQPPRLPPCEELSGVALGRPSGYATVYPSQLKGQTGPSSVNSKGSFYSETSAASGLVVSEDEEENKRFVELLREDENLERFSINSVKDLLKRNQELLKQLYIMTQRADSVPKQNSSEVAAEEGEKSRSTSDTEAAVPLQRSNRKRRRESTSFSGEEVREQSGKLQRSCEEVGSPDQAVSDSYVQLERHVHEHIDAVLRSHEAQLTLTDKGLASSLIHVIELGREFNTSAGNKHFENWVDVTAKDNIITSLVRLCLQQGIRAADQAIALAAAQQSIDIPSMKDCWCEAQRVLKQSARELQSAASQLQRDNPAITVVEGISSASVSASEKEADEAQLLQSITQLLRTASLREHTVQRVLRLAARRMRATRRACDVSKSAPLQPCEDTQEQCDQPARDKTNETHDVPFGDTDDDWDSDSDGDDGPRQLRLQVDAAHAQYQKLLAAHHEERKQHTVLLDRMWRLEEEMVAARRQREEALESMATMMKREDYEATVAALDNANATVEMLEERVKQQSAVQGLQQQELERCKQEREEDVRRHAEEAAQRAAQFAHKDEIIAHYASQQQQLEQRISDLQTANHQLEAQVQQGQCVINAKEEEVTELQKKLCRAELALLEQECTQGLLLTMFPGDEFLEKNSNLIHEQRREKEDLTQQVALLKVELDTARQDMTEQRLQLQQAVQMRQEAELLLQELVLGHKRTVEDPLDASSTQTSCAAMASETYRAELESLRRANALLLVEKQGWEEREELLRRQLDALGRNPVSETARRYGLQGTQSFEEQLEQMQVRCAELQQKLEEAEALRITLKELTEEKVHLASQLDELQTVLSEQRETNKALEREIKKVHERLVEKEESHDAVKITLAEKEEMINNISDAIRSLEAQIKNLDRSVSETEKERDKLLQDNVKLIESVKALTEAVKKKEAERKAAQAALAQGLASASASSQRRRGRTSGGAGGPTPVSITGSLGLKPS

binding: binds
Substance: NUP-2 (nuclear peripheral protein-2), product of Tb927.9.6460 (from UniProt Q38ET5)
